Results deposited as PubChem BioAssay AID1259308 (NCATS, 2017).
This is an unselected part of about 59,000 deposited reagents. Over the whole deposit, about 1,510 (2.6%) got an active call. 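Calls use total luciferase alone and ignore viability, so some active siRNAs may act by altering cell number.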 Reagents against one gene are numbered here. Not all columns of the deposit are shown.

Aim: 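Candidate targets for better recombinant protein yield in mammalian cells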 (primary screen)
System: human HEK293 embryonic kidney cells stably expressing firefly luciferase (HEK-CMV-Luc2-Hygro)
Reagents: single siRNA against human genes, 0.8 pmol siRNA per well
Timing: 72 h
Measurement: 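Luciferase light (ONE-Glo) measured on one replicate plate set and viability (CellTiter-Glo) on the other, scaled to a negative control siRNA, with robust z-scores and luciferase per cell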
Direction: total luciferase, z-score: higher = more reporter protein produced
Hit rule: 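An siRNA counts as active if its total luciferase robust z-score exceeds 3; genes with two or more such siRNAs out of three were retested with fresh siRNAs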
Meaning of the calls: active = raised luciferase; inactive = no rise

no.	Target gene	siRNA no.	total luciferase, z-score	Call
1	SPTSSB (serine palmitoyltransferase small subunit B)	1	-1.13	inactive
2	SPTSSB (serine palmitoyltransferase small subunit B)	2	-0.543	inactive
3	SPTSSB (serine palmitoyltransferase small subunit B)	3	-0.132	inactive
4	ZNF564 (zinc finger protein 564)	1	1.03	inactive
5	ZNF564 (zinc finger protein 564)	2	0.422	inactive
6	ZNF564 (zinc finger protein 564)	3	-1.31	inactive
7	ZNF862 (zinc finger protein 862)	1	-0.791	inactive
8	ZNF862 (zinc finger protein 862)	2	2.12	inactive
9	ZNF862 (zinc finger protein 862)	3	-0.822	inactive
10	CYB5D2 (cytochrome b5 domain containing 2)	1	0.695	inactive
11	CYB5D2 (cytochrome b5 domain containing 2)	2	-1.81	inactive
12	CYB5D2 (cytochrome b5 domain containing 2)	3	1.45	inactive
13	PLAC9 (placenta associated 9)	1	0.54	inactive
14	PLAC9 (placenta associated 9)	2	3.28	active
15	PLAC9 (placenta associated 9)	3	-0.185	inactive
16	OR2S2 (olfactory receptor family 2 subfamily S member 2)	1	-0.781	inactive
17	OR2S2 (olfactory receptor family 2 subfamily S member 2)	2	-0.621	inactive
18	OR2S2 (olfactory receptor family 2 subfamily S member 2)	3	0.0505	inactive
19	TP73 (tumor protein p73)	1	2.98	inactive
20	TP73 (tumor protein p73)	2	-0.0539	inactive
21	TP73 (tumor protein p73)	3	-0.0951	inactive
22	CNGB1 (cyclic nucleotide gated channel subunit beta 1)	1	-0.015	inactive
23	CNGB1 (cyclic nucleotide gated channel subunit beta 1)	2	-1.03	inactive
24	CNGB1 (cyclic nucleotide gated channel subunit beta 1)	3	0.365	inactive
25	RPS16P5 (ribosomal protein S16 pseudogene 5)	1	-0.643	inactive
26	RPS16P5 (ribosomal protein S16 pseudogene 5)	2	2.48	inactive
27	RPS16P5 (ribosomal protein S16 pseudogene 5)	3	-0.407	inactive
28	STMP1 (short transmembrane mitochondrial protein 1)	1	3.35	active
29	STMP1 (short transmembrane mitochondrial protein 1)	2	3.19	active
30	STMP1 (short transmembrane mitochondrial protein 1)	3	-0.485	inactive
31	STMP1 (short transmembrane mitochondrial protein 1)	4	0.358	inactive
32	STMP1 (short transmembrane mitochondrial protein 1)	5	1	inactive
33	STMP1 (short transmembrane mitochondrial protein 1)	6	0.757	inactive
34	XPNPEP1 (X-prolyl aminopeptidase 1)	1	0.331	inactive
35	XPNPEP1 (X-prolyl aminopeptidase 1)	2	-0.54	inactive
36	XPNPEP1 (X-prolyl aminopeptidase 1)	3	1.74	inactive
37	CFAP77 (cilia and flagella associated protein 77)	1	0.256	inactive
38	CFAP77 (cilia and flagella associated protein 77)	2	-0.108	inactive
39	CFAP77 (cilia and flagella associated protein 77)	3	0.3	inactive
40	HDHD3 (haloacid dehalogenase like hydrolase domain containing 3)	1	-0.493	inactive
41	HDHD3 (haloacid dehalogenase like hydrolase domain containing 3)	2	-0.409	inactive
42	HDHD3 (haloacid dehalogenase like hydrolase domain containing 3)	3	-0.909	inactive
43	FAM47DP (family with sequence similarity 47 member D, pseudogene)	1	-0.65	inactive
44	FAM47DP (family with sequence similarity 47 member D, pseudogene)	2	-2.07	inactive
45	FAM47DP (family with sequence similarity 47 member D, pseudogene)	3	-0.602	inactive
46	IL1RAPL1 (interleukin 1 receptor accessory protein like 1)	1	-0.0801	inactive
47	IL1RAPL1 (interleukin 1 receptor accessory protein like 1)	2	0.936	inactive
48	IL1RAPL1 (interleukin 1 receptor accessory protein like 1)	3	0.446	inactive
49	ALG1L8P (ALG1 like 8, pseudogene)	1	-0.0967	inactive
50	ALG1L8P (ALG1 like 8, pseudogene)	2	-1.98	inactive
51	ALG1L8P (ALG1 like 8, pseudogene)	3	1.15	inactive
52	RILPL2 (Rab interacting lysosomal protein like 2)	1	-0.51	inactive
53	RILPL2 (Rab interacting lysosomal protein like 2)	2	0.0868	inactive
54	RILPL2 (Rab interacting lysosomal protein like 2)	3	-0.204	inactive
55	ZNF341 (zinc finger protein 341)	1	0.707	inactive
56	ZNF341 (zinc finger protein 341)	2	0.306	inactive
57	ZNF341 (zinc finger protein 341)	3	-0.34	inactive

In a second layout: entries from further up
OR2S2 (olfactory receptor family 2 subfamily S member 2) #1 | total luciferase, z-score = -0.781; Call = inactive
OR2S2 (olfactory receptor family 2 subfamily S member 2) #2 | total luciferase, z-score = -0.621; Call = inactive
OR2S2 (olfactory receptor family 2 subfamily S member 2) #3 | total luciferase, z-score = 0.0505; Call = inactive
